Reference: patent US8476197B2, “Aminopropenoates as fungicides” (priority 2009, dated 2013)
Some of these results come from one statement about several compounds together.

System: Phytophthora infestans
Assay type: in vivo
Conditions: preventive, tomato, 500 ppm of active ingredient, evaluated 7 days after inoculation

Structure (SMILES)	efficacy
CCOC(=O)C(C#N)=C(NC(C)c1ccccn1)c1cccnc1C(F)(F)F (racemic) [Compound 233]	≥ 70%
CCOC(=O)C(C#N)=C(NC1COC1)c1cccnc1Cl [Compound 1356]	≥ 70%
CCOC(=O)C(C#N)=C(NC(C)COc1cccc(OC)c1)c1cccnc1Cl (stereo not shown) [Compound 1173]	≥ 70%
CCOC(=O)C(C#N)=C(NC(C)C(N)=S)c1cccnc1Cl (stereo not shown) [Compound 708]	≥ 70%
CCOC(=O)C(C#N)=C(NC(C)c1ncccc1SC)c1cccnc1Cl (stereo not shown) [Compound 1448]	≥ 70%
CCOC(=O)C(C#N)=C(Nc1ccccc1Cl)c1cn(C)nc1C(F)F [Compound 1216]	≥ 70%
CCOC(=O)C(C#N)=C(NC(C)c1ccc(Cl)cc1Cl)c1cn(C)nc1C(F)F (racemic) [Compound 552]	≥ 70%
CCOC(=O)C(C#N)=C(NC(C)C(F)(F)F)c1cccnc1Cl (mixture of isomers) [Compound 806]	≥ 70%
CC(C)C(C)NC(=C(C#N)C(=O)NC1CC1)c1cn(C)nc1C(F)F (stereo not shown) [Compound 1006]	≥ 70%
CCOC(=O)C(C#N)=C(NC(C)c1nccs1)c1sc(Cl)nc1Cl (racemic) [Compound 242]	≥ 70%
CCOC(=O)C(C#N)=C(NC(C)(C)C(C)(C)C)c1sccc1Br [Compound 755]	≥ 70%
CCOC(=O)C(C#N)=C(NC(C)c1ncc(C)s1)c1cccnc1Cl (stereo not shown) [Compound 1520]	≥ 70%
CC(NC(=C(C#N)C(=O)NCC(F)(F)F)c1cccnc1Cl)c1nccs1 (stereo not shown) [Compound 324]	≥ 70%
CCOC(=O)C(C#N)=C(NC(C)C(C)C)c1ccc(Cl)nc1Cl (stereo not shown) [Compound 986]	≥ 70%
CCOC(=O)C(C#N)=C(NC(C)(C)c1ccccc1)c1cn(C)nc1C(F)F [Compound 551]	≥ 70%
CCOC(=O)C(C#N)=C(Nc1ccc(OC(F)F)cc1)c1cn(C)nc1C(F)F [Compound 472]	≥ 70%
CCOC(=O)C(C#N)=C(NCc1nccs1)c1c(C(F)F)nn(C)c1Cl [Compound 236]	≥ 70%
COC(=O)C(C#N)=C(NCc1ccccn1)c1cn(C)nc1C(F)F [Compound 58]	≥ 70%
CCOC(=O)C(C#N)=C(NC(C)c1ncc(Br)cc1Cl)c1cccnc1Cl (mixture of isomers) [Compound 287]	≥ 70%
CCOC(=O)C(C#N)=C(NCc1ncc(C)s1)c1ccsc1Br [Compound 247]	≥ 70%
CCOC(=O)C(C#N)=C(NC(C)c1ccn(C)n1)c1cccnc1Cl (racemic) [Compound 276]	≥ 70%

Structure (SMILES)	efficacy
CCOC(=O)C(C#N)=C(NC(C)C1CCC1)c1ccnn1C(F)F (stereo not shown) [Compound 1640]	≥ 70%
CCOC(=O)C(C#N)=C(NC(C)c1ccccn1)c1ccc(C)nc1Cl (stereo not shown) [Compound 1380]	≥ 70%
CCOC(=O)C(C#N)=C(NC1CC1C)c1cn(C)nc1C(F)F (stereo not shown) [Compound 1130]	≥ 70%
CCOC(=O)C(C#N)=C(NC(C)c1ccc(Cl)s1)c1cccnc1Cl (mixture of isomers) [Compound 281]	≥ 70%
CCOC(=O)C(C#N)=C(NC(C)c1ccccn1)c1ccncc1C(F)(F)F (racemic) [Compound 1394]	≥ 70%
COC(=O)C(C#N)=C(NC(C)Cc1c[nH]c2ccccc12)c1cn(C)nc1C(F)F (racemic) [Compound 57]	≥ 70%
CCOC(=O)C(C#N)=C(NC(C)c1ccccn1)c1cn(C)nc1I (racemic) [Compound 1248]	≥ 70%
COC(=O)C(C#N)=C(NC(C)Cc1ccccc1)c1cccnc1Cl (stereo not shown) [Compound 426]	≥ 70%
CCOC(=O)C(C#N)=C(NC(C)C(C)C)c1c(C(F)F)nn(C)c1F (racemic) [Compound 1000]	≥ 70%
CCOC(=O)C(C#N)=C(NC(C)C(=O)NC)c1cccnc1C(F)F (stereo not shown) [Compound 724]	≥ 70%
CCOC(=O)C(C#N)=C(NC(c1ccc(Cl)cc1)C(F)(F)F)c1cccnc1Cl (racemic) [Compound 1261]	≥ 70%
CCOC(=O)C(C#N)=C(NC(C)COC)c1scnc1Cl (stereo not shown) [Compound 1467]	≥ 70%
CCOC(=O)C(C#N)=C(NC(C)c1cccc(OC)n1)c1cccnc1Cl (stereo not shown) [Compound 1438]	≥ 70%
CCNC(=O)C(C#N)=C(NC(C)c1ccccn1)c1ccnc(Cl)c1Cl (stereo not shown) [Compound 1201]	≥ 70%
CC(C)C(C)NC(=C(C#N)C(=O)NCCF)c1cccnc1Cl (stereo not shown) [Compound 1593]	≥ 70%
CCOC(=O)C(C#N)=C(NC(C)COCc1ccccc1F)c1cccnc1Cl (stereo not shown) [Compound 1163]	≥ 70%
CCOC(=O)C(C#N)=C(NC1CC1C(C)C)c1cccnc1Cl (stereo not shown) [Compound 1635]	≥ 70%
CCOC(=O)C(C#N)=C(NC(C)c1ccccn1)c1ccnc(Cl)c1Cl (mixture of isomers) [Compound 289]	≥ 70%
CCOC(=O)C(C#N)=C(NC(C)C(C)C)c1cccnc1 (stereo not shown) [Compound 1504]	≥ 70%
CC#CC1(NC(=C(C#N)C(=O)OCC)c2cccnc2Cl)CCCC1 [Compound 1275]	≥ 70%
CCOC(=O)C(C#N)=C(NC(C)COc1ccccc1C)c1cn(C)nc1C(F)F (racemic) [Compound 1242]	≥ 70%

Structure (SMILES)	efficacy
CCOC(=O)C(C#N)=C(NC(C)c1ccccn1)c1cn(C)nc1C(F)F (racemic) [Compound 36]	≥ 70%
CCOC(=O)C(C#N)=C(NC1CCC1)c1ccncc1C(F)(F)F [Compound 805]	≥ 70%
C=CCOC(=O)C(C#N)=C(NC(C)C1CC1)c1cccnc1Cl (mixture of isomers) [Compound 915]	≥ 70%
CCOC(=O)C(C#N)=C(NC(C)c1ccccn1)c1cn(C)cc1C(F)(F)F (racemic) [Compound 270]	≥ 70%
CCOC(=O)C(C#N)=C(NC(C)CSc1ccc(Cl)cc1)c1cccnc1Cl (stereo not shown) [Compound 1156]	≥ 70%
CCOC(=O)C(C#N)=C(NC(C)C1CC1)c1ccnn1C(F)F (stereo not shown) [Compound 1647]	≥ 70%
CCOC(=O)C(C#N)=C(NC(C)C1(Cl)CC1)c1cccnc1Cl (stereo not shown) [Compound 1182]	≥ 70%
C#CCNC(=O)C(C#N)=C(NC(C)c1nccs1)c1cn(C)nc1C(F)F (stereo not shown) [Compound 1297]	≥ 70%
CCOC(=O)C(C#N)=C(NC(C)c1ccccn1)c1cn(C)nc1CC (stereo not shown) [Compound 1206]	≥ 70%
CCOC(=O)C(C#N)=C(NC(C)(C)CC)c1cccnc1Cl [Compound 1425]	≥ 70%
CCOC(=O)C(C#N)=C(NC(C)c1ccccn1)c1scnc1Cl (stereo not shown) [Compound 1462]	≥ 70%
CCOC(=O)C(C#N)=C(NC(C)CF)c1ccncc1Cl (stereo not shown) [Compound 750]	≥ 70%
COC(=O)C(C#N)=C(NC(C)C(C)C)c1cccnc1Cl (stereo not shown) [Compound 932]	≥ 70%
C=CCOC(=O)C(C#N)=C(NCc1nccs1)c1cn(C)nc1C(F)F [Compound 306]	≥ 70%
CCOC(=O)C(C#N)=C(NC(C#N)c1cnn(-c2ccccc2)c1)c1cn(C)nc1C(F)F (stereo not shown) [Compound 1232]	≥ 70%
CCOC(=O)C(C#N)=C(NC(C)CSc1ccc(Cl)c(Cl)c1)c1cccnc1Cl (stereo not shown) [Compound 1158]	≥ 70%
CCOC(=O)C(C#N)=C(Nc1cccc(Cl)c1)c1cn(C)nc1C(F)F [Compound 477]	≥ 70%
CCOC(=O)C(C#N)=C(NC(C)c1nccs1)c1cn(C)cc1C(F)(F)F (racemic) [Compound 271]	≥ 70%
C=CCNC(=C(C#N)C(=O)OCC)c1cn(C)nc1C(F)F [Compound 1127]	≥ 70%
CONC(=O)C(C#N)=C(Nc1ccccc1SC)c1cccnc1Cl [Compound 1620]	≥ 70%
CCOC(=O)C(C#N)=C(NC(C#N)c1ccc(Cl)cc1Cl)c1cn(C)nc1C(F)F (stereo not shown) [Compound 1231]	≥ 70%

Structure (SMILES)	efficacy
CCOC(=O)C(C#N)=C(NC(C)C1=NOCCO1)c1cccnc1Cl (stereo not shown) [Compound 1117]	≥ 70%
C=CCNC(=O)C(C#N)=C(NC(C)C(C)C)c1cccnc1Cl (stereo not shown) [Compound 1458]	≥ 70%
CCOC(=O)C(C#N)=C(NC(C)C(C)C)c1cn(C)nc1C(F)(F)F (stereo not shown) [Compound 939]	≥ 70%
CCOC(=O)C(C#N)=C(NC(C)c1cnn(C)c1)c1cccnc1Cl (stereo not shown) [Compound 321]	≥ 70%
CCOC(=O)C(C#N)=C(NC(C)c1nccs1)c1cn(C)nc1C(Cl)Cl (stereo not shown) [Compound 1564]	≥ 70%
CCOC(=O)C(C#N)=C(NC(C)CC)c1cccnc1Cl (stereo not shown) [Compound 1174]	≥ 70%
CCOC(=O)C(C#N)=C(NC(C)C1CC1)c1ccc(Cl)nc1Cl (mixture of isomers) [Compound 914]	≥ 70%
CC#CC(C)NC(=C(C#N)C(=O)OCC)c1cccnc1Cl (stereo not shown) [Compound 1052]	≥ 70%
CCOC(=O)C(C#N)=C(NC(C)Cc1ccccn1)c1cccnc1Cl (mixture of isomers) [Compound 295]	≥ 70%
CCOC(=O)C(C#N)=C(NC1CC2CCC1C2)c1cccnc1Cl (stereo not shown) [Compound 1082]	≥ 70%
C=CCOC(=O)C(C#N)=C(NC(C)c1ccccn1)c1cn(C)nc1C(F)F (mixture of isomers) [Compound 307]	≥ 70%
CCOC(=O)C(C#N)=C(NC(C)C1CC1)c1cccnc1C(F)(F)F (stereo not shown) [Compound 892]	≥ 70%
CCOC(=O)C(C#N)=C(NC(C)C(N)=O)c1ccncc1Cl (stereo not shown) [Compound 722]	≥ 70%
CCOC(=O)C(C#N)=C(Nc1ccccc1F)c1cccnc1Cl [Compound 1590]	≥ 70%
C#CCNC(=O)C(C#N)=C(NC(C)c1nccs1)c1cccnc1Cl (stereo not shown) [Compound 317]	≥ 70%
CCOC(=O)C(C#N)=C(NC(C)c1ccn[nH]1)c1cccnc1Cl (stereo not shown) [Compound 1608]	≥ 70%
CCOC(=O)C(C#N)=C(NC(C)c1ccccc1Cl)c1cn(C)nc1C(F)F (racemic) [Compound 553]	≥ 70%
CC(NC(=C(C#N)C(=O)NCCF)c1cccnc1Cl)c1nccs1 (racemic) [Compound 1563]	≥ 70%
COC(=O)C(C#N)=C(NC(C)C(C)(C)C)c1cccnc1Cl (mixture of isomers) [Compound 916]	≥ 70%
